# Results reported in patent US20230144805A1, “Methods of Noninvasive Detection and Specific Treatment for Cancer Metastasis” (Primo Biotechnology Co., Ltd, priority 2021, published 2023).
# Tested on: breast cancer hepatic metastatic cells
# Experiment: [18F]PSMA-1007 micro PET/CT imaging in 4T1-tumor mice
# Type: in vivo
# Conditions: 200-300 uCi (0.2 ml) tail vein
structure (smiles),measurement,value
O=C(O)CC[C@H](NC(=O)N[C@@H](CCCCNC(=O)[C@H](Cc1ccc2ccccc2c1)NC(=O)c1ccc(CNC(=O)[C@H](CCC(=O)O)NC(=O)[C@H](CCC(=O)O)NC(=O)c2ccc([18F])nc2)cc1)C(=O)O)C(=O)O [18F-PSMA-1007],uptake by breast cancer hepatic metastatic cells in micro PET/CT image,specific and could be absorbed by breast cancer hepatic metastatic cells
same,uptake by primary breast cancer tumors and lung/bone metastatic tumor cells in micro PET/CT image,not by the primary breast cancer tumors and lung/bone metastatic tumor cells
